{"source": "PubChem BioAssay AID1259254 – NCATS | 2017", "screen": "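Finding genes that stop cells copying their DNA twice in one cycle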 (primary screen)", "cells": "human HCT116 colorectal cancer cells", "reagent": "single siRNA against human genes", "time to read-out": "3 days", "detection": "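Nuclei stained with Hoechst and imaged; cell-cycle phase assigned by DNA content; G2 share scaled per plate, non-targeting siRNA 0%, GMNN siRNA 100%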", "direction": "G2 robust z-score and G2 cells, % of GMNN control: higher = more G2 cells, more excess DNA replication", "call rule": "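An siRNA counts as active if its G2 robust z-score lies at least 5 MADs above the screen median; here such calls match roughly 38% of GMNN control or more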", "note": "The whole screen tested about 59,000 reagents; shown is an unselected part. Over the whole deposit, about 1,550 (2.6%) were called active. 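G2 share is only a proxy for re-replication; each gene was hit by three separate siRNAs, and active genes were retested.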 Entries without a mark were called inactive. Reagents against one gene are numbered here. Further read-outs or replicates are left out here. The record does not give: the amount of reagent."}
{"Gene":"GPATCH1 (G-patch domain containing 1)","reagent":1,"G2 robust z-score":0.388,"G2 cells, % of GMNN control":5.7}
{"Gene":"GPATCH1 (G-patch domain containing 1)","reagent":2,"G2 robust z-score":-0.0578,"G2 cells, % of GMNN control":2.56}
{"Gene":"GPATCH1 (G-patch domain containing 1)","reagent":3,"G2 robust z-score":1.13,"G2 cells, % of GMNN control":10.9}
{"Gene":"SAMD9L (sterile alpha motif domain containing 9 like)","reagent":1,"G2 robust z-score":0.683,"G2 cells, % of GMNN control":7.77}
{"Gene":"SAMD9L (sterile alpha motif domain containing 9 like)","reagent":2,"G2 robust z-score":-0.0396,"G2 cells, % of GMNN control":2.69}
{"Gene":"SAMD9L (sterile alpha motif domain containing 9 like)","reagent":3,"G2 robust z-score":1.93,"G2 cells, % of GMNN control":16.5}
{"Gene":"LINC01521 (long independently transcribed non-coding RNA 1521)","reagent":1,"G2 robust z-score":0.658,"G2 cells, % of GMNN control":7.6}
{"Gene":"LINC01521 (long independently transcribed non-coding RNA 1521)","reagent":2,"G2 robust z-score":0.393,"G2 cells, % of GMNN control":5.73}
{"Gene":"LINC01521 (long independently transcribed non-coding RNA 1521)","reagent":3,"G2 robust z-score":-0.486,"G2 cells, % of GMNN control":-0.449}
{"Gene":"EPM2A (EPM2A glucan phosphatase, laforin)","reagent":1,"G2 robust z-score":-0.376,"G2 cells, % of GMNN control":0.321}
{"Gene":"EPM2A (EPM2A glucan phosphatase, laforin)","reagent":2,"G2 robust z-score":-0.556,"G2 cells, % of GMNN control":-0.946}
{"Gene":"EPM2A (EPM2A glucan phosphatase, laforin)","reagent":3,"G2 robust z-score":1.84,"G2 cells, % of GMNN control":15.9}
{"Gene":"HS6ST1 (heparan sulfate 6-O-sulfotransferase 1)","reagent":1,"G2 robust z-score":"6.46 (active)","G2 cells, % of GMNN control":48.4}
{"Gene":"HS6ST1 (heparan sulfate 6-O-sulfotransferase 1)","reagent":2,"G2 robust z-score":-0.694,"G2 cells, % of GMNN control":-1.92}
{"Gene":"HS6ST1 (heparan sulfate 6-O-sulfotransferase 1)","reagent":3,"G2 robust z-score":-0.0343,"G2 cells, % of GMNN control":2.73}
{"Gene":"IKZF5 (IKAROS family zinc finger 5)","reagent":1,"G2 robust z-score":0.00712,"G2 cells, % of GMNN control":3.02}
{"Gene":"IKZF5 (IKAROS family zinc finger 5)","reagent":2,"G2 robust z-score":-0.514,"G2 cells, % of GMNN control":-0.65}
{"Gene":"IKZF5 (IKAROS family zinc finger 5)","reagent":3,"G2 robust z-score":2.09,"G2 cells, % of GMNN control":17.7}
{"Gene":"FLOT1 (flotillin 1)","reagent":1,"G2 robust z-score":-0.926,"G2 cells, % of GMNN control":-3.55}
{"Gene":"FLOT1 (flotillin 1)","reagent":2,"G2 robust z-score":1.86,"G2 cells, % of GMNN control":16.1}
{"Gene":"FLOT1 (flotillin 1)","reagent":3,"G2 robust z-score":3,"G2 cells, % of GMNN control":24}
{"Gene":"AMZ1 (archaelysin family metallopeptidase 1)","reagent":1,"G2 robust z-score":3.31,"G2 cells, % of GMNN control":26.2}
{"Gene":"AMZ1 (archaelysin family metallopeptidase 1)","reagent":2,"G2 robust z-score":2.79,"G2 cells, % of GMNN control":22.6}
{"Gene":"AMZ1 (archaelysin family metallopeptidase 1)","reagent":3,"G2 robust z-score":0.795,"G2 cells, % of GMNN control":8.56}
{"Gene":"EVC (EvC ciliary complex subunit 1)","reagent":1,"G2 robust z-score":3.11,"G2 cells, % of GMNN control":24.8}
{"Gene":"EVC (EvC ciliary complex subunit 1)","reagent":2,"G2 robust z-score":0.447,"G2 cells, % of GMNN control":6.12}
{"Gene":"EVC (EvC ciliary complex subunit 1)","reagent":3,"G2 robust z-score":-0.835,"G2 cells, % of GMNN control":-2.9}
{"Gene":"FLJ46284","reagent":1,"G2 robust z-score":-0.86,"G2 cells, % of GMNN control":-3.08}
{"Gene":"FLJ46284","reagent":2,"G2 robust z-score":2.11,"G2 cells, % of GMNN control":17.8}
{"Gene":"FLJ46284","reagent":3,"G2 robust z-score":0.579,"G2 cells, % of GMNN control":7.04}

Just “G2 cells, % of GMNN control” (4 entries from above):
LINC01521 (long independently transcribed non-coding RNA 1521) #2: 5.73
LINC01521 (long independently transcribed non-coding RNA 1521) #3: -0.449
EPM2A (EPM2A glucan phosphatase, laforin) #1: 0.321
EPM2A (EPM2A glucan phosphatase, laforin) #2: -0.946
